Measurements from “University of Dundee, Small-Polar-MMV Screening Library” (2021), ChEMBL document CHEMBL3988442.

The chains behind the UniProt entries cited, without tags or fusion partners. Residues count along the entry.
UniProt Q4DA54, 1-478: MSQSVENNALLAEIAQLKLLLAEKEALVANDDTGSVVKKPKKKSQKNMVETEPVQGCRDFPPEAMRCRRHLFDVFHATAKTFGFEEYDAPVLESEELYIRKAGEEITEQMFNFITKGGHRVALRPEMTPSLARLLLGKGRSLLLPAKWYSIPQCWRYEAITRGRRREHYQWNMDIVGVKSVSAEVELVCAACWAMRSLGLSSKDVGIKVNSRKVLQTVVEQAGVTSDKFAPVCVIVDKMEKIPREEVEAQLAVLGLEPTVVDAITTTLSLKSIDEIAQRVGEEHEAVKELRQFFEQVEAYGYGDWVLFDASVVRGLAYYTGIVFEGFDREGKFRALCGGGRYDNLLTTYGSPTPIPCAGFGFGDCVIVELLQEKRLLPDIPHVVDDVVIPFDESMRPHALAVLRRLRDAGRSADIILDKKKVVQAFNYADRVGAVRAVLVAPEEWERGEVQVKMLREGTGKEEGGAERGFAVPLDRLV
UniProt P9WFT3, whole entry: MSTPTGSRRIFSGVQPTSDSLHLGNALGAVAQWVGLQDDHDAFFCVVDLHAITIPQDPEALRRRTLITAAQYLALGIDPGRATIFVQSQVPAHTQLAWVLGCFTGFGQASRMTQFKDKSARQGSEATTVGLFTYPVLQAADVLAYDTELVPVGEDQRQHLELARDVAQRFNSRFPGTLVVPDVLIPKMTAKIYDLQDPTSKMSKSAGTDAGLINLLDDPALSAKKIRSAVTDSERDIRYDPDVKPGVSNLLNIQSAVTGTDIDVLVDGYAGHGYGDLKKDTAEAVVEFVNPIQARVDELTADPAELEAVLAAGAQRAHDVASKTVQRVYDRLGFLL
UniProt I6X8D2, whole entry: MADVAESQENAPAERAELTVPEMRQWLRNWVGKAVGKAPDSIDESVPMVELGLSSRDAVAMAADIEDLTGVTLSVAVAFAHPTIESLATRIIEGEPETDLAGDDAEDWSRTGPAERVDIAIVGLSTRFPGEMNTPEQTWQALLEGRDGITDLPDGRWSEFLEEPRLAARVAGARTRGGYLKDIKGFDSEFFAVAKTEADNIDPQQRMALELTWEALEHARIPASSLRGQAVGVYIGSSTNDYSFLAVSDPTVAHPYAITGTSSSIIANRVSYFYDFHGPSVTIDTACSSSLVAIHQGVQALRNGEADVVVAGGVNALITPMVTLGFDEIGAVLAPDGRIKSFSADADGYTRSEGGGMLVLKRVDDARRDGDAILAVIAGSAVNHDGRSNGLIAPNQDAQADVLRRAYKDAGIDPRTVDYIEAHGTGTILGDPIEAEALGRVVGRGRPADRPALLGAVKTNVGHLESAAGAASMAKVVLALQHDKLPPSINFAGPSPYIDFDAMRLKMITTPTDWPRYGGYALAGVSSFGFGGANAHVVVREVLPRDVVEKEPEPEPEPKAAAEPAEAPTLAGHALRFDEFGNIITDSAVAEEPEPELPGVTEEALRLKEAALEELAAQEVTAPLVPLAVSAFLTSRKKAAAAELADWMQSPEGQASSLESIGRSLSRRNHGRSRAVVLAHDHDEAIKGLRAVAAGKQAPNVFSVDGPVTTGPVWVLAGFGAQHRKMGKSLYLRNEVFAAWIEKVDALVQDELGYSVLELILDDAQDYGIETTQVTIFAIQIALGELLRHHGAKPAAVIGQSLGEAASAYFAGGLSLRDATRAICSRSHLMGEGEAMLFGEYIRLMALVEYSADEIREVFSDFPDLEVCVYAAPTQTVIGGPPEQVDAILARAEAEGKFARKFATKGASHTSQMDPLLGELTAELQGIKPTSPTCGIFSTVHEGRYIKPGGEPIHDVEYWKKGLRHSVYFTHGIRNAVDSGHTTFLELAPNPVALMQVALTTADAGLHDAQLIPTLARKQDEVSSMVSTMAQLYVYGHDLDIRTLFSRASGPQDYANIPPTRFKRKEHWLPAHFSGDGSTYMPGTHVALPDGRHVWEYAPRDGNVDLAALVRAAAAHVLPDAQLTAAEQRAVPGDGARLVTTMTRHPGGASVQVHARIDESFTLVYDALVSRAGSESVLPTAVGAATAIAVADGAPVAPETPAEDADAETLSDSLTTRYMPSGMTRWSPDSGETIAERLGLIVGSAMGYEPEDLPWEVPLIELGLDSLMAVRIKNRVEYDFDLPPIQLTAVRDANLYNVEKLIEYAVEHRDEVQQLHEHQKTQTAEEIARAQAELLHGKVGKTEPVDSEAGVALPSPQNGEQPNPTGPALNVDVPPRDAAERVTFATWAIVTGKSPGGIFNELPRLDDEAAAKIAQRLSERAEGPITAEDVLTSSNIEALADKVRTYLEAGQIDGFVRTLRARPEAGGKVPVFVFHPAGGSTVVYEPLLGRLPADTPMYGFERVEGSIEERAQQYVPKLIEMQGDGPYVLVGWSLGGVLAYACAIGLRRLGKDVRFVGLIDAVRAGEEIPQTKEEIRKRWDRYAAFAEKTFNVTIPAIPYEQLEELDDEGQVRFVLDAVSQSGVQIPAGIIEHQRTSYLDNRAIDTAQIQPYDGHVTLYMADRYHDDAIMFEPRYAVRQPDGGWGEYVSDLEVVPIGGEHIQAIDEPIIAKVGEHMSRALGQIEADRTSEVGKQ
UniProt Q8IDJ8, 1-583: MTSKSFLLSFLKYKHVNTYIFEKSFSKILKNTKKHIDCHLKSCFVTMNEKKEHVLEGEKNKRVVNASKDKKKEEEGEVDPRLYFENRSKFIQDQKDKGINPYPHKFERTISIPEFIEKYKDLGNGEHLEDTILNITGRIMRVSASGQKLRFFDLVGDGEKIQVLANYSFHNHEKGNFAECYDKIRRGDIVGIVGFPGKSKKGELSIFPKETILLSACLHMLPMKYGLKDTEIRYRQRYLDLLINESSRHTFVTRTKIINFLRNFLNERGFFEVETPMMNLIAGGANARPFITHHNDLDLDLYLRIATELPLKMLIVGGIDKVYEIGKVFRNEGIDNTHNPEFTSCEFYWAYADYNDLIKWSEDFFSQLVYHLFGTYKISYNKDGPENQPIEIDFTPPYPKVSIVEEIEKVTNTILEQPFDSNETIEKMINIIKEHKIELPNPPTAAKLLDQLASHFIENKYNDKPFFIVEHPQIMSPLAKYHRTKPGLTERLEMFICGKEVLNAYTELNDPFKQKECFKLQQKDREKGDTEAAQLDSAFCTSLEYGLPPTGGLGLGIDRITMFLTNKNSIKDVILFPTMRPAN

A: 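Histidine-tRNA ligase, Trypanosoma cruzi CL Brener (UniProt Q4DA54). Enzyme assay of histidyl-tRNA synthetase; the read-out is not stated. Tested at 30 µM. The record gives no direction; compounds that gave an IC50 in retests scored well above the rest, so higher reads as stronger inhibition. About 69,000 compounds were tested under these conditions; 0.045% (about 31) showed 50% or more at least once.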
B: 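Tryptophan-tRNA ligase, Mycobacterium tuberculosis (UniProt P9WFT3). Enzyme assay of tryptophanyl-tRNA synthetase; the read-out is not stated. Tested at 10 µM. Direction is not recorded; retested compounds ran higher, which suggests that high means inhibition. Size under these conditions: about 65,000 compounds, about 64 of them at 50% or above in at least one test.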
C: 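Polyketide synthase Pks13, Mycobacterium tuberculosis (UniProt I6X8D2). Enzyme assay of the thioesterase domain of polyketide synthase 13; the read-out is not stated. Concentration: 30 µM. Higher reads as stronger inhibition (inferred from which compounds were picked for retests). About 67,000 compounds were tested under these conditions; 0.46% (about 300) showed 50% or more at least once.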
D: 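Enzyme assay of the cytosolic lysyl-tRNA synthetase in 384-well plates, read by luminescence. Target: Lysine-tRNA ligase, Plasmodium falciparum 3D7 (UniProt Q8IDJ8). Compounds at 30 µM. Higher reads as stronger inhibition, judged from the few compounds that gave an IC50. Size under these conditions: about 69,000 compounds, about 49 of them at 50% or above in at least one test.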
E: 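Assay of Toxoplasma gondii numbers, read through their beta-galactosidase reporter with a colour substrate. Concentration: 10 µM. Higher reads as fewer parasites (inferred from which compounds were picked for retests). Size under these conditions: about 67,000 compounds, about 260 of them at 50% or above in at least one test.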

Each number is a percent effect as filed.
The record does not define 0% and 100%; most values in the screen are far below 50% and negative numbers occur (in some assays of this library far below -100).
The compounds are a random part of those screened.
A dash means the value is not listed here; it may have been measured.

structure	A	B	C	D	E
CSc1ccc(OC(C)C(=O)Nc2cc[nH]n2)cc1 (stereo not drawn)	8.021	-4.335	-17	7.088	4.307
CNC(=O)[C@@H]1C[C@H](n2cc(-c3ccc(Cl)cc3)nn2)CN1	4.478	0.7831	-17.88	1.56	11.6
COCCN1CCC2(C1)CN(c1ncc(F)cn1)C2.O=C(O)C(F)(F)F	-	-	-	-	5.619
COCCC(=O)N1CCCC2(CCCN2Cc2ccccc2F)C1.O=C(O)C(F)(F)F (stereo not drawn)	-	-	-	-	4.696
CNC(=O)c1cc2c(nc1NCC1CC1)CCN(c1ncccn1)CC2	4.878	4.703	9.038	-4.831	-0.767
CC(=O)N1CCCC2(CCN(c3ccccc3)C2=O)C1 (stereo not drawn)	0	5.959	-43.65	-1.265	27.4
[H][C@@]12COC[C@]1(CNS(C)(=O)=O)CN(C(=O)CC1CCCC1)C2	-	-	-	-	-34.79
CSCCNC(=O)c1coc(COc2ccc3sc(C)nc3c2)n1	0.5025	-1.667	1.56	-3.469	21.82
CN1CCC(CN(C)S(=O)(=O)CC2CCCCC2)CC1	7.027	3.926	23.62	-1.096	-4.004
c1ccc2c(c1)CN(c1ncnc3c1CCNC3)CCO2	24.61	-4.125	-33.97	3.624	2.594
CC(C)c1ccc(OCCC(=O)N(C)CC(=O)N(C)C)cc1	5.882	-1.068	-	1.908	3.612
O=C(NCCn1ccnc1)c1ccn(-c2ccccc2F)n1	0	11.14	-28.47	-1.336	13.69
CC(C)CN1CC[C@H](c2nnc(COc3ccc(F)cc3)o2)C1	14.85	-3.991	5.218	2.923	-4.299
c1ccc(CO[C@H]2CC[C@H]3[C@H]2OCCN3CCN2CCCCC2)nc1	5.6	-1.926	4.955	2.084	-
COc1cc(OC)c(C2Nc3cc(Cl)ccc3C3=NCCN32)cc1OC (stereo not drawn)	1.639	-0.3524	-33.65	-3.182	11.7
CC(C)N1CCC2(CC1)C(=O)N(c1cccnc1)c1c(F)cccc12.Cl	-	-	-	-	-14.45
O=C(O)C(F)(F)F.[H][C@@]12CN(Cc3ccoc3)CCO[C@]1([H])CN(C(=O)Cc1cccs1)C2	-	-	-	-	-19.98
CN1CC2(CCCCN2C(=O)c2ccsc2)CC1=O (stereo not drawn)	5.288	0.6634	-48.46	3.781	-4.284
CC(=O)c1ccc(NC(=O)N[C@H](C(=O)O)C(C)C)cc1	10	1.202	-10.13	-3.866	17.15
O=C(CN1CCCCC1Cn1cncn1)NCc1ccccn1 (stereo not drawn)	4.511	-0.7081	-10.37	3.828	-
COC(=O)c1cccc(S(=O)(=O)N2CSCC2C(=O)N(C)C2CC2)c1 (stereo not drawn)	5.911	-3.616	-59.18	5.344	-5.436
CC(=O)N[C@H]1CCO[C@@H](c2cccc(NC(=O)c3cccc(F)c3)c2)C1	1.695	14.95	8.047	0.1886	20.53
CN(CCc1ccccn1)C(=O)C1Cc2ccccc2CN1C (stereo not drawn)	1.205	-1.867	-10.86	-1.018	-12.17
O=C(NC1CC1)[C@H]1C[C@H]2OCC[C@H]2N(Cc2cccc3ccccc23)C1	10.75	4.701	-17.5	2.619	-
CCc1cnc(N2CC[C@@H]3CN(C(=O)c4ccco4)CCO[C@@H]3C2)nc1	2.151	0.7752	-30.25	-1.173	-
OC1(CNCCc2nc3c(s2)CCCC3)CNCCOC1 (stereo not drawn)	11.11	3.484	-8.514	-1.572	28.31
CNC(=O)[C@@H](c1ccccc1OC)N1CCC[C@H]1C(=O)NCCN(C)C.Cl.Cl	-	-	-	-	-0.1232
CN(C)C[C@H]1O[C@H](Cc2cc(-c3ccccn3)on2)CC[C@@H]1O	1.493	-2.509	-36.44	5	-1.478
O=c1oc(-c2cccs2)nn1CC(O)c1ccccc1 (stereo not drawn)	3.734	1.243	-8.189	3.382	-0.5507
Cc1nc(-c2ccc(CO)cc2)cc(C2CCNCC2)n1	7.752	-4.486	7.466	1.674	-
CCOc1nnc(CN2CCC(c3cc4ccccc4[nH]3)CC2)s1	8.374	-3.199	-28.93	4.932	7.134
CC(C)c1cc(NCC2(Cn3cccn3)CC2)n2nccc2n1	7.317	-0.2366	-7.578	5.298	-12.85
CCCC(O)CN1CCC(=O)N(C)Cc2cc(F)ccc21 (stereo not drawn)	6.742	-	-37.98	3.357	9.917
CC(C)C[C@H](N)C(=O)N1CCSc2ccccc2C1	6	-0.1468	13.93	3.912	-
CC(C)N(C)Cc1nnn2c1CN(Cc1cccnc1)CCC2	1.84	2.314	3.626	1.948	-
[H][C@@]12CCN(Cc3nc(C)cs3)C[C@@]1([H])O[C@H](c1noc(C)n1)C2	-	-	-	-	5.03
CC(C)c1nccc(C2CC(=O)Nc3n[nH]c(C4CCC4)c32)n1 (stereo not drawn)	7	3.965	-7.146	1.988	-1.083
Cc1ccc(OCC2CCCN(C(=O)Cn3ccccc3=O)C2)cc1 (stereo not drawn)	3.004	0.6101	-12.15	1.445	-10.54
Cc1ccc(C)c(OCC(O)Cn2ncc3cnn(C)c(=O)c32)c1 (stereo not drawn)	10.34	3.008	-15.78	8.042	4.652
O=C(Cc1cccnc1)N1CCC2(CC1)CCN(C1CCOCC1)C2	5.858	-2.9	-3.521	-8.164	-
CC(C1CC1)N(C)C(=O)c1ccc(-n2ncc(C#N)c2N)cc1 (stereo not drawn)	2.564	1.988	-9.832	0.3484	-19.53
CC1(c2ncc(CN3CCOCC3)cn2)CCCCO1 (stereo not drawn)	6.215	2.285	2.557	4.211	3.822
[H][C@]12CCC[C@@]1(COC)CN(C(=O)N1CCCC1)C2	-	-	-	-	8.852
CC(C)CSCCN1CCCN(S(C)(=O)=O)CC1	14.14	0	-14.34	5.139	6.897
CCN(C(=O)C1CCC1)C(c1cccnc1)c1ccc2c(c1)CCO2 (stereo not drawn)	-1.02	-2.559	-11.11	-6.717	6.254
CC(C)(NC(=O)c1coc(COc2cccc(F)c2)n1)C(N)=O	4.348	-7.732	-32.02	5.141	3.82
COCC(=O)N1CCc2nc(-c3cnccn3)nc(O)c2C1	9.574	-	6.151	2.218	8.172
[H][C@]12CC[C@]([H])(CN(Cc3cscn3)C1)N(Cc1c(C)noc1C)C2=O	-	-	-	-	3.435
Cc1ccc(-c2nn(-c3cccc(F)c3)cc2CN(CCO)CCO)o1	6.404	-2.468	-18.27	3.214	-2.259

The last 6 entries again:

structure	A	B	C	D	E
CC(C)CSCCN1CCCN(S(C)(=O)=O)CC1	14.14	0	-14.34	5.139	6.897
CCN(C(=O)C1CCC1)C(c1cccnc1)c1ccc2c(c1)CCO2 (stereo not drawn)	-1.02	-2.559	-11.11	-6.717	6.254
CC(C)(NC(=O)c1coc(COc2cccc(F)c2)n1)C(N)=O	4.348	-7.732	-32.02	5.141	3.82
COCC(=O)N1CCc2nc(-c3cnccn3)nc(O)c2C1	9.574	-	6.151	2.218	8.172
[H][C@]12CC[C@]([H])(CN(Cc3cscn3)C1)N(Cc1c(C)noc1C)C2=O	-	-	-	-	3.435
Cc1ccc(-c2nn(-c3cccc(F)c3)cc2CN(CCO)CCO)o1	6.404	-2.468	-18.27	3.214	-2.259